Reference: the supplement of paper PMC6411743
± gives the standard deviation of the averaged measurements. Some of the results follow.

Sequences of proteins named here, by UniProt entry; tags and fusion partners are left off. A change or cut given only in a name is not applied to a line headed by its entry.
UniProt P09429: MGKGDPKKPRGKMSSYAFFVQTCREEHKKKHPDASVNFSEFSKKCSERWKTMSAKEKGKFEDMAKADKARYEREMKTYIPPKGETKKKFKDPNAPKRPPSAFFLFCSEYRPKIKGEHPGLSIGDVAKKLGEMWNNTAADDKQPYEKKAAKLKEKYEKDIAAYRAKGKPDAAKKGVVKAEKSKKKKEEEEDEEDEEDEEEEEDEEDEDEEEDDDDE
UniProt P25789: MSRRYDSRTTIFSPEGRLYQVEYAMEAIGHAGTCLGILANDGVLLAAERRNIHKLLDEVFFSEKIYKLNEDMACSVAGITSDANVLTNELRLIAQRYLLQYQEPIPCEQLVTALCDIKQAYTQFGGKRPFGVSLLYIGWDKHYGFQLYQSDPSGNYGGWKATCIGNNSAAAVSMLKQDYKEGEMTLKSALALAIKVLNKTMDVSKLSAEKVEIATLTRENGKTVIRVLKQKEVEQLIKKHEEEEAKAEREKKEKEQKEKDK
UniProt P07741: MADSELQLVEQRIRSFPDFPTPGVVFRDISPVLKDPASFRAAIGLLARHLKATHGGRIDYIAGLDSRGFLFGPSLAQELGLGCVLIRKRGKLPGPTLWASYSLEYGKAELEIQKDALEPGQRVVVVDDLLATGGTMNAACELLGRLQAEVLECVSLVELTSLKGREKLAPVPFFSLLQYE
UniProt P17980, whole entry: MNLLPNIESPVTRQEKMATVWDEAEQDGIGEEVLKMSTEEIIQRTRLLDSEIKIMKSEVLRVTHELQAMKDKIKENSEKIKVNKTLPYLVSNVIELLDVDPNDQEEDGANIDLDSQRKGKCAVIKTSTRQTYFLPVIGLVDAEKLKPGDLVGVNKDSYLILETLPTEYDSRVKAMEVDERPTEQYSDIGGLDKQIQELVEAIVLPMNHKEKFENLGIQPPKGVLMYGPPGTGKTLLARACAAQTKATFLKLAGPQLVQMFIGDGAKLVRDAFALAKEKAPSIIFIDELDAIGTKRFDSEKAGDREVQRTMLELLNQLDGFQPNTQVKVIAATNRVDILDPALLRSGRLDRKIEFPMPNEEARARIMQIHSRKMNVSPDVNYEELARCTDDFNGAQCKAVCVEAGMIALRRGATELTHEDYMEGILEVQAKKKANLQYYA
UniProt P0CG13, whole entry: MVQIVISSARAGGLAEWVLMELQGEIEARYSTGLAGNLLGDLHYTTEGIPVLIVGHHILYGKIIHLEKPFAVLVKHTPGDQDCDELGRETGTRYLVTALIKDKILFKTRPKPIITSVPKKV
UniProt P25098: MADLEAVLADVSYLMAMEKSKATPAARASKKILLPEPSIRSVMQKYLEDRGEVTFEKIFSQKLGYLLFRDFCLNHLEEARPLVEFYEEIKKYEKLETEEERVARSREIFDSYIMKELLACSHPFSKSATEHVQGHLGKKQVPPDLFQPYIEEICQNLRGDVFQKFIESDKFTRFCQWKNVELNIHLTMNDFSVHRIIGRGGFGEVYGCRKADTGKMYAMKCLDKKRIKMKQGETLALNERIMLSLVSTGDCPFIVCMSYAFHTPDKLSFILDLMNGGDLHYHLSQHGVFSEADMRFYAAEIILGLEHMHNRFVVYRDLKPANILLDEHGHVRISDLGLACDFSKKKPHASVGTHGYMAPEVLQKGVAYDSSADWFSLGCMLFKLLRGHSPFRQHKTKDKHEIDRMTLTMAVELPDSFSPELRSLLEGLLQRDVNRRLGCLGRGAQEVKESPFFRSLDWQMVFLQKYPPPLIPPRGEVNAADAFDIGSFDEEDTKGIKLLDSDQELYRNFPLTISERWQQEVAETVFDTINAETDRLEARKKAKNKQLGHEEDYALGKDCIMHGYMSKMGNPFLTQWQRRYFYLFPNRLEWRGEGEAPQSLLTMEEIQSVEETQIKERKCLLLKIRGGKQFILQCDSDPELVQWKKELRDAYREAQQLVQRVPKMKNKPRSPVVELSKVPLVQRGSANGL
UniProt P22033: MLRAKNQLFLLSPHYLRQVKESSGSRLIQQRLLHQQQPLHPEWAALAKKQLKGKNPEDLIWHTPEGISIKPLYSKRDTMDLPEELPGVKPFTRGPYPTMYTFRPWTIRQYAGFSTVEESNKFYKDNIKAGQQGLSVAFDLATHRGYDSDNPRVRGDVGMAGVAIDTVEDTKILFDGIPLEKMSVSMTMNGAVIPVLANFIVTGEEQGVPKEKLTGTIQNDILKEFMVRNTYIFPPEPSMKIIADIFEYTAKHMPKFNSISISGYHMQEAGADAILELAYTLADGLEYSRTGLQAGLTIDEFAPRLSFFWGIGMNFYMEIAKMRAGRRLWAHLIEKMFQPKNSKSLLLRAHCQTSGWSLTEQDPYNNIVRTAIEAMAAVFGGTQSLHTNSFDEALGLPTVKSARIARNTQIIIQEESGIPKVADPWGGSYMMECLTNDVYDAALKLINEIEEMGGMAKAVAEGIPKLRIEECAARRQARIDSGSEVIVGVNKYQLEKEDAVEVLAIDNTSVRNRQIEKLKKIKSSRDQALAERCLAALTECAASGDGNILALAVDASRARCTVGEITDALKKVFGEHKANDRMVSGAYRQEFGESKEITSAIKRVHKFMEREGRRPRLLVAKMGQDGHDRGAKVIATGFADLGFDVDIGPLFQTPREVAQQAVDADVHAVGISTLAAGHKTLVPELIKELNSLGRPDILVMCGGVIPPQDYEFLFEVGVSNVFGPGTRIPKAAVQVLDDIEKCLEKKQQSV
UniProt P08134, whole entry: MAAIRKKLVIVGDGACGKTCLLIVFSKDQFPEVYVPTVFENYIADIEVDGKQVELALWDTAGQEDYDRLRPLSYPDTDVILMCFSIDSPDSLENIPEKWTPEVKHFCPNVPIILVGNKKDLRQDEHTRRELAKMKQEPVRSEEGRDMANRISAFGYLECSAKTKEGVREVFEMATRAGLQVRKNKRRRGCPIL
UniProt P11172: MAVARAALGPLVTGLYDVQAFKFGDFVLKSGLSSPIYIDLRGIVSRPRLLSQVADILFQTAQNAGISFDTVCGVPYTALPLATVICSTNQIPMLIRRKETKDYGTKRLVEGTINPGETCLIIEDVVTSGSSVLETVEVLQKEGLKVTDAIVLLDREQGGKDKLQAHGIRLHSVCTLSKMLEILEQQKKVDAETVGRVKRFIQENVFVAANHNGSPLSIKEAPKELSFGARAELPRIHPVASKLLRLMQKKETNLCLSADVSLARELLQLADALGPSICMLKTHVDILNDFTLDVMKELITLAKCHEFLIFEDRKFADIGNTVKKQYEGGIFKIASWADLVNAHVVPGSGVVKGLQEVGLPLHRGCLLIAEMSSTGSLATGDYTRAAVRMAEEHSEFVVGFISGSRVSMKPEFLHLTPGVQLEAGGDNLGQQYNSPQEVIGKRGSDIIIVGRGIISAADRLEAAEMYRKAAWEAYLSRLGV
UniProt P12236: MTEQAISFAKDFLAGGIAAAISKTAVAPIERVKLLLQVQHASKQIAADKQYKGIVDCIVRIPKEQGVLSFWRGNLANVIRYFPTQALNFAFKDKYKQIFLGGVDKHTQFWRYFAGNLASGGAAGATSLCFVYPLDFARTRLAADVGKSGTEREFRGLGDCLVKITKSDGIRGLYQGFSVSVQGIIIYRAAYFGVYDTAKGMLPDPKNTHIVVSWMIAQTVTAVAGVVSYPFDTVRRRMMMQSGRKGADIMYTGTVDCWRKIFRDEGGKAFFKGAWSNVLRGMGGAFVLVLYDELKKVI
UniProt P24752: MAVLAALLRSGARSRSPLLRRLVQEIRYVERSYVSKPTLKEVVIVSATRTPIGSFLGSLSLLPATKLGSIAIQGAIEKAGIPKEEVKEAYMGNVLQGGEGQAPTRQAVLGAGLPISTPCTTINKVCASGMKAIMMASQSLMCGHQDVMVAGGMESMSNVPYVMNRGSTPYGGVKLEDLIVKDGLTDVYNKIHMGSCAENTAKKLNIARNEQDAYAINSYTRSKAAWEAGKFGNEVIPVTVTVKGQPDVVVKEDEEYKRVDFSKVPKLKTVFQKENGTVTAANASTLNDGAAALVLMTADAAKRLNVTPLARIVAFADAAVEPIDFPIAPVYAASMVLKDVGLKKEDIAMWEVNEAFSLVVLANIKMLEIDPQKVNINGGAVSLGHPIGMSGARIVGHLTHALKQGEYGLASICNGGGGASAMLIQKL
UniProt P19022: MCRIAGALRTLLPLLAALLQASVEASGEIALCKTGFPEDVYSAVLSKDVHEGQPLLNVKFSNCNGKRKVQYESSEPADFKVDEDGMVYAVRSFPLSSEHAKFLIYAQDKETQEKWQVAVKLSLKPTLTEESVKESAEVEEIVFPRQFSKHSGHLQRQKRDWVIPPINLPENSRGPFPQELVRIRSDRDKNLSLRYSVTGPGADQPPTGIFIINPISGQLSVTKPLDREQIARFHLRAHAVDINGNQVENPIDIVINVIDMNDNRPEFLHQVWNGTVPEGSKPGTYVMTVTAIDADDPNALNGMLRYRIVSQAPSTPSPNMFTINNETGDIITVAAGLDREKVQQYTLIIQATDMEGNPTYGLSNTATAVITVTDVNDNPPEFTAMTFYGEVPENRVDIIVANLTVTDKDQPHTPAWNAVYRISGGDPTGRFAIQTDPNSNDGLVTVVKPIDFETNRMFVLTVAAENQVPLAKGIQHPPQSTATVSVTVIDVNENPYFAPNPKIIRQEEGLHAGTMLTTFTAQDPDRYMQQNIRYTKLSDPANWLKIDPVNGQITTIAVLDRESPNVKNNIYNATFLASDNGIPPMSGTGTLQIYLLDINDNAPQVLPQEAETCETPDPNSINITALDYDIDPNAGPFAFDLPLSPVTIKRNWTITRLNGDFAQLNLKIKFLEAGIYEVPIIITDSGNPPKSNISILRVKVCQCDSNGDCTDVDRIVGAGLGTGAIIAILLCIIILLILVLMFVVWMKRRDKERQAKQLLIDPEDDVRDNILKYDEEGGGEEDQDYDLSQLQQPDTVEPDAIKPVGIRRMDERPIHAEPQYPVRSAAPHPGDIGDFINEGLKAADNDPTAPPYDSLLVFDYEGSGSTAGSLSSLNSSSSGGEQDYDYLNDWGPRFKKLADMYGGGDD
UniProt P09132: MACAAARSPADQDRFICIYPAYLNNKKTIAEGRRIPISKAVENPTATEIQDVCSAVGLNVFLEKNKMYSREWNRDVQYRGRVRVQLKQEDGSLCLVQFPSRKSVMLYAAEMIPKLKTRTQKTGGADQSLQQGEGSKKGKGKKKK

Compound: Nc1nc2c(ncn2[C@@H]2O[C@H](COP(=O)(O)OP(=O)(O)OP(=O)(O)O)[C@@H](O)[C@H]2O)c(=O)[nH]1 [guanosine triphosphate]
Test: NP40-soluble protein abundance relative to vehicle (solubility fold change) (ratio); higher = more soluble protein in presence of GTP
Summary of the method: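 Across three independent experiments, values are fold changes against the detergent-processed vehicle for each replicate, based on vsn-normalised intensities. The samples were Jurkat crude lysate treated with eight concentrations (0.1 to 10 mM) for 10 min at room temperature and then 3 min at 37 °C. Lysate was solubilised with 0.8% NP40 and benzonase, ultracentrifuged, and the supernatant analysed by TMT-labelled LC-MS/MS.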

Target | NP40-soluble protein abundance (concentration: 0.1mM) | NP40-soluble protein abundance (concentration: 0.5mM) | NP40-soluble protein abundance (concentration: 1mM) | NP40-soluble protein abundance (concentration: 2mM) | NP40-soluble protein abundance (concentration: 4mM) | NP40-soluble protein abundance (concentration: 6mM) | NP40-soluble protein abundance (concentration: 8mM) | NP40-soluble protein abundance (concentration: 10mM)
HMGB1 (UniProt P09429) | 0.783 ± 0.059 | 0.784 ± 0.048 | 1.06 ± 0.051 | 0.99 ± 0.055 | 1 ± 0.038 | 1.01 ± 0.068 | 0.992 ± 0.086 | 1.19 ± 0.093
PSMA4 (UniProt P25789) | 0.999 ± 0.016 | 1.04 ± 0.062 | 1 ± 0.067 | 1.03 ± 0.14 | 1.04 ± 0.14 | 1.05 ± 0.17 | 1.02 ± 0.14 | 0.991 ± 0.14
APRT (UniProt P07741) | 0.949 ± 0.048 | 0.939 ± 0.076 | 0.787 ± 0.047 | 0.831 ± 0.068 | 0.816 ± 0.028 | 0.774 ± 0.042 | 0.681 ± 0.11 | 0.744 ± 0.1
UniProt P17980 and related entries | 0.951 ± 0.015 | 0.987 ± 0.035 | 0.98 ± 0.056 | 0.996 ± 0.058 | 1.02 ± 0.076 | 1.03 ± 0.1 | 1.03 ± 0.1 | 0.997 ± 0.11
P0CG12 and related entries (UniProt P0CG13) | 1.06 ± 0.14 | 0.994 ± 0.082 | 1.02 ± 0.071 | 0.951 ± 0.1 | 0.992 ± 0.1 | 1.02 ± 0.07 | 0.98 ± 0.12 | 1.06 ± 0.094
UniProt P25098 | 1.01 ± 0.031 | 1.01 ± 0.024 | 0.931 ± 0.028 | 0.924 ± 0.016 | 0.915 ± 0.047 | 0.909 ± 0.044 | 0.89 ± 0.038 | 0.874 ± 0.063
UniProt P22033 | 1.01 ± 0.036 | 1 ± 0.065 | 0.961 ± 0.031 | 0.93 ± 0.026 | 0.947 ± 0.024 | 0.926 ± 0.031 | 0.91 ± 0.023 | 0.902 ± 0.042
UniProt P08134 and related entries | 0.944 ± 0.077 | 1.04 ± 0.1 | 0.924 ± 0.14 | 0.956 ± 0.083 | 0.896 ± 0.11 | 0.93 ± 0.1 | 0.886 ± 0.14 | 0.929 ± 0.12
UMPS (UniProt P11172) | 1.06 ± 0.016 | 1.05 ± 0.034 | 0.943 ± 0.021 | 0.946 ± 0.041 | 0.908 ± 0.044 | 0.905 ± 0.032 | 0.878 ± 0.051 | 0.843 ± 0.079
H2AFX (UniProt P16104) | 0.94 ± 0.014 | 0.955 ± 0.036 | 1.07 ± 0.068 | 1.13 ± 0.075 | 1.2 ± 0.088 | 1.48 ± 0.16 | 1.44 ± 0.13 | 2.26 ± 0.46
SLC25A6 (UniProt P12236) | 1.03 ± 0.16 | 0.933 ± 0.077 | 0.966 ± 0.14 | 0.962 ± 0.11 | 1.12 ± 0.25 | 0.97 ± 0.13 | 1.02 ± 0.17 | 0.963 ± 0.085
ACAT1 (UniProt P24752) | 0.954 ± 0.049 | 0.995 ± 0.046 | 0.955 ± 0.057 | 0.918 ± 0.056 | 0.912 ± 0.045 | 0.931 ± 0.043 | 0.938 ± 0.047 | 0.919 ± 0.051
RPL7 (UniProt P18124) | 0.956 ± 0.11 | 1.06 ± 0.16 | 1.07 ± 0.21 | 1.04 ± 0.29 | 0.887 ± 0.32 | 0.87 ± 0.3 | 0.546 ± 0.21 | 0.928 ± 0.35
UniProt P19022 and related entries | 1.11 ± 0.085 | 1.05 ± 0.12 | 1.01 ± 0.16 | 1.14 ± 0.11 | 1.09 ± 0.095 | 1.16 ± 0.24 | 0.929 ± 0.075 | 1.05 ± 0.056
UniProt P09132 and related entries | 0.94 ± 0.04 | 0.938 ± 0.05 | 1.07 ± 0.055 | 1.1 ± 0.052 | 1.11 ± 0.047 | 1.15 ± 0.035 | 1.17 ± 0.055 | 1.2 ± 0.069

Two records picked at random from those above, as already listed:
Target | NP40-soluble protein abundance (concentration: 0.1mM) | NP40-soluble protein abundance (concentration: 0.5mM) | NP40-soluble protein abundance (concentration: 1mM) | NP40-soluble protein abundance (concentration: 2mM) | NP40-soluble protein abundance (concentration: 4mM) | NP40-soluble protein abundance (concentration: 6mM) | NP40-soluble protein abundance (concentration: 8mM) | NP40-soluble protein abundance (concentration: 10mM)
PSMA4 (UniProt P25789) | 0.999 ± 0.016 | 1.04 ± 0.062 | 1 ± 0.067 | 1.03 ± 0.14 | 1.04 ± 0.14 | 1.05 ± 0.17 | 1.02 ± 0.14 | 0.991 ± 0.14
HMGB1 (UniProt P09429) | 0.783 ± 0.059 | 0.784 ± 0.048 | 1.06 ± 0.051 | 0.99 ± 0.055 | 1 ± 0.038 | 1.01 ± 0.068 | 0.992 ± 0.086 | 1.19 ± 0.093
